PubChem BioAssay AID1259254 – NCATS – 2017
Aim: 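Gene knock-downs that lead to re-replication, shown by excess G2 DNA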 (primary screen). System: human HCT116 colorectal cancer cells. Knock-down reagent: single siRNA against human genes. Timing: 3 days. Measured: 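Nuclei stained with Hoechst and imaged; cell-cycle phase assigned by DNA content; G2 share scaled per plate, non-targeting siRNA 0%, GMNN siRNA 100%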. Direction: G2 robust z-score: higher = more G2 cells, more excess DNA replication. Active means: 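An siRNA counts as active if its G2 robust z-score lies at least 5 MADs above the screen median; here such calls match roughly 38% of GMNN control or more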.
The whole screen tested about 59,000 reagents; shown is an unselected part. Of all reagents, about 1,550 (2.6%) were called active. 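G2 share is only a proxy for re-replication; each gene was hit by three separate siRNAs, and active genes were retested.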 The numbers tell different reagents against one gene apart. Further read-outs or replicates are left out here. The record does not give: the amount of reagent.

Silencing of PLEKHM1 #1 resulted in: G2 robust z-score -0.532; inactive.
Against PLEKHM1 #2, the entry reads G2 robust z-score -0.737; inactive.
Depletion of PLEKHM1 #3 came out at: G2 robust z-score 0.0963; inactive.
With knock-down of APMAP #1, the record shows G2 robust z-score 0.204; inactive.
After knock-down of APMAP #2, the screen gave G2 robust z-score -0.436; inactive.
APMAP #3 scored G2 robust z-score 0.794; inactive.
Silencing of LILRA2 #1 resulted in: G2 robust z-score -0.397; inactive.
After knock-down of LILRA2 #2 the results were G2 robust z-score -0.451; inactive.
LILRA2 #3 scored G2 robust z-score 1.57; inactive.
OR5AC2 #1 gave G2 robust z-score -0.818; inactive.
Against OR5AC2 #2 the deposit lists G2 robust z-score -0.417; inactive.
For OR5AC2 #3, the values are G2 robust z-score -0.267; inactive.
ITM2C #1 gave G2 robust z-score 0.273; inactive.
With knock-down of ITM2C #2 the results were G2 robust z-score 0.527; inactive.
With knock-down of ITM2C #3, the screen gave G2 robust z-score -0.844; inactive.
OPRD1 #1 scored G2 robust z-score -0.47; inactive.
Depletion of OPRD1 #2 gave: G2 robust z-score 0.871; inactive.
With knock-down of OPRD1 #3, the screen gave G2 robust z-score -1.04; inactive.
For MEPCE #1, the values are G2 robust z-score -0.234; inactive.
With knock-down of MEPCE #2, the screen gave G2 robust z-score -0.103; inactive.
MEPCE #3 scored G2 robust z-score 1.25; inactive.
ALKBH3 #1 scored G2 robust z-score 0.833; inactive.
ALKBH3 #2 scored G2 robust z-score -1.01; inactive.
After knock-down of ALKBH3 #3 the results were G2 robust z-score 0.822; inactive.
Knock-down of FOXA2 #1 came out at: G2 robust z-score -0.834; inactive.
For FOXA2 #2, the entry reads G2 robust z-score -0.179; inactive.
Against FOXA2 #3 the deposit lists G2 robust z-score -0.697; inactive.
Depletion of ZFAND3 #1 resulted in: G2 robust z-score 4.66; inactive.
After knock-down of ZFAND3 #2 the results were G2 robust z-score -0.374; inactive.
With knock-down of ZFAND3 #3 the results were G2 robust z-score 6.72; active.
